Binding signal (log2 enrichment (interaction score)) data for 1 sequence are collected here from publication PMC8384837.

Where a chain is given by its changes, count along the chain named. The list shows a part of the results. For some assays here: At the low end of the ranking the order means little.

What all share (conditions): yeast three-hybrid, YBZ-1, SC-Leu-His + 0.5 mM 3-AT, 4 days
Test [1] addresses T1, PUM1 PUF domain R1-QFR R2-VFQ R7-NPG S863Q + R864F + Q867R + N899V + Y900F + S1079N + N1080P + E1083G (UniProt Q14671).
T1 sequence: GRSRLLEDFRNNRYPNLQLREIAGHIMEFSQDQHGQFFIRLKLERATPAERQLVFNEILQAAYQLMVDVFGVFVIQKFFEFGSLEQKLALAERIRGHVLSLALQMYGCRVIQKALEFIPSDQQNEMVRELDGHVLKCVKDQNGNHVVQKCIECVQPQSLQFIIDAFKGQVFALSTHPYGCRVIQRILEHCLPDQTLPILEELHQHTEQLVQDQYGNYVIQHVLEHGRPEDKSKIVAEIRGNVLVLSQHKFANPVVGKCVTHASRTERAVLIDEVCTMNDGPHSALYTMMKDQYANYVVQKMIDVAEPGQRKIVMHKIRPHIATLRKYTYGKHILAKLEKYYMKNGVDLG

The target of test [2] is T2, PUM1 PUF domain R3-THE R4-TFR C935T + R936H + Q939E + N971T + H972F + Q975R (UniProt Q14671).
T2 sequence: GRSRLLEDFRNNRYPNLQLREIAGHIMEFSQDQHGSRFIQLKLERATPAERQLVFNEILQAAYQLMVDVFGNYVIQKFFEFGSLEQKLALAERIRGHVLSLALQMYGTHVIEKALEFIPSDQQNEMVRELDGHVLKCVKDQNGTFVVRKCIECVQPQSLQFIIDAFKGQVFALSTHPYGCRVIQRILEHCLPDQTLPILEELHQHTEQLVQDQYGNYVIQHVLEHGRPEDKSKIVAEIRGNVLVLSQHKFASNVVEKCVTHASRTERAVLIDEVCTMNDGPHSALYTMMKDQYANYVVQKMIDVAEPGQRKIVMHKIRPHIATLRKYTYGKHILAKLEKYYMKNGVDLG

In test [3] the target is T3, PUM1 PUF domain R5-AFF C1007A + R1008F + Q1011F (Homo sapiens) (UniProt Q14671).
T3 sequence: T2 sequence with T108C, H109R, E112Q, T144N, F145H, R148Q, C180A, R181F, Q184F

Test [4] concerns the target T4, PUM1 PUF domain R5-CGR R1008G + Q1011R (Homo sapiens) (UniProt Q14671).
T4 sequence: T2 sequence with T108C, H109R, E112Q, T144N, F145H, R148Q, R181G, Q184R

Test [5] has as its target T5, PUM1 PUF domain R5-CRR Q1011R (Homo sapiens) (UniProt Q14671).
T5 sequence: T2 sequence with T108C, H109R, E112Q, T144N, F145H, R148Q, Q184R

The target of test [6] is T6, PUM1 PUF domain R5-CSR R1008S + Q1011R (Homo sapiens) (UniProt Q14671).
T6 sequence: T2 sequence with T108C, H109R, E112Q, T144N, F145H, R148Q, R181S, Q184R

The target in test [7] is T7, PUM1 PUF domain R5-CTR R1008T + Q1011R (UniProt Q14671).
T7 sequence: T2 sequence with T108C, H109R, E112Q, T144N, F145H, R148Q, R181T, Q184R

Test [8] concerns the target T8, PUM1 PUF domain R5-DCR C1007D + R1008C + Q1011R (UniProt Q14671).
T8 sequence: T2 sequence with T108C, H109R, E112Q, T144N, F145H, R148Q, C180D, R181C, Q184R

In test [9] the target is T9, PUM1 PUF domain R5-DLR C1007D + R1008L + Q1011R (UniProt Q14671).
T9 sequence: T2 sequence with T108C, H109R, E112Q, T144N, F145H, R148Q, C180D, R181L, Q184R

Test [10] addresses T10, PUM1 PUF domain R5-DYG C1007D + R1008Y + Q1011G (UniProt Q14671).
T10 sequence: T2 sequence with T108C, H109R, E112Q, T144N, F145H, R148Q, C180D, R181Y, Q184G

For test [11], the target named is T11, PUM1 PUF domain R5-ERC C1007E + Q1011C (Homo sapiens) (UniProt Q14671).
T11 sequence: T2 sequence with T108C, H109R, E112Q, T144N, F145H, R148Q, C180E, Q184C

For test [12], the target named is T12, PUM1 PUF domain R5-ERG C1007E + Q1011G (Homo sapiens) (UniProt Q14671).
T12 sequence: T2 sequence with T108C, H109R, E112Q, T144N, F145H, R148Q, C180E, Q184G

In test [13] the target is T13, PUM1 PUF domain R5-ERK C1007E + Q1011K (Homo sapiens) (UniProt Q14671).
T13 sequence: T2 sequence with T108C, H109R, E112Q, T144N, F145H, R148Q, C180E, Q184K

The target in test [14] is T14, PUM1 PUF domain R5-EVC C1007E + R1008V + Q1011C (Homo sapiens) (UniProt Q14671).
T14 sequence: T2 sequence with T108C, H109R, E112Q, T144N, F145H, R148Q, C180E, R181V, Q184C

The target of test [15] is T15, PUM1 PUF domain R5-FRC C1007F + Q1011C (UniProt Q14671).
T15 sequence: T2 sequence with T108C, H109R, E112Q, T144N, F145H, R148Q, C180F, Q184C

Test [16] addresses T16, PUM1 PUF domain R5-FRD C1007F + Q1011D (UniProt Q14671).
T16 sequence: T2 sequence with T108C, H109R, E112Q, T144N, F145H, R148Q, C180F, Q184D

For test [17], the target named is T17, PUM1 PUF domain R5-GGE C1007G + R1008G + Q1011E (Homo sapiens) (UniProt Q14671).
T17 sequence: T2 sequence with T108C, H109R, E112Q, T144N, F145H, R148Q, C180G, R181G, Q184E

The target in test [18] is T18, PUM1 PUF domain R5-GHG C1007G + R1008H + Q1011G (UniProt Q14671).
T18 sequence: T2 sequence with T108C, H109R, E112Q, T144N, F145H, R148Q, C180G, R181H, Q184G

The target in test [19] is T19, PUM1 PUF domain R5-GKC C1007G + R1008K + Q1011C (UniProt Q14671).
T19 sequence: T2 sequence with T108C, H109R, E112Q, T144N, F145H, R148Q, C180G, R181K, Q184C

For test [20], the target named is T20, PUM1 PUF domain R5-GLR C1007G + R1008L + Q1011R (UniProt Q14671).
T20 sequence: T2 sequence with T108C, H109R, E112Q, T144N, F145H, R148Q, C180G, R181L, Q184R

Test [21] deals with T21, PUM1 PUF domain R5-GSE C1007G + R1008S + Q1011E (Homo sapiens) (UniProt Q14671).
T21 sequence: T2 sequence with T108C, H109R, E112Q, T144N, F145H, R148Q, C180G, R181S, Q184E

Test [22] has as its target T22, PUM1 PUF domain R5-GTE C1007G + R1008T + Q1011E (UniProt Q14671).
T22 sequence: T2 sequence with T108C, H109R, E112Q, T144N, F145H, R148Q, C180G, R181T, Q184E

In test [23] the target is T23, PUM1 PUF domain R5-GVD C1007G + R1008V + Q1011D (Homo sapiens) (UniProt Q14671).
T23 sequence: T2 sequence with T108C, H109R, E112Q, T144N, F145H, R148Q, C180G, R181V, Q184D

With “GGCUAGAACUAGUGGAUCCCCCGGCGCCCGGCGGCUCGAGCCCGGGUAAGUGUUAAUAGUCUGCAUGCCGCCGGGCGCCAUGCCUGCAGGUCGACUCUAGAAAACAUG”, the binding signal (log2 enrichment (interaction score)) in [1] is -4.8; in [2] it was -5.93; in test [3], -2.24; in test [4], -1.95; in test [5], -0.76; in test [6], 0.23. The binding signal (log2 enrichment (interaction score)) is -4.98 in test [7]; -2.65 in test [8]; -2.31 in [9]; -4.76 in [10]; 0.48 in test [11]; -0.55 in test [12]. The binding signal (log2 enrichment (interaction score)) in test [13] was -0.35; in test [14], -1.94; in test [15] it was -4.25; in [16], -4.38; in [17], -1.63; in test [18] it was -3.18. Further, the binding signal (log2 enrichment (interaction score)) was -9.44 in test [19]; -4.1 in test [20]; -1.89 in test [21]; -5.6 in test [22]; -1.63 in [23].
